{"source": "the supplement of paper PMC8728848", "binders": {"B1": {"name": "HA-00510 (Pseudomonas aeruginosa), Q02V39_PSEAB (protein)", "chain": "GVPIVNIATPNGAGLSNNHFRDYNVGANGLILNNATGKTQGTQLGGIILGNPNLKGQAAQVILNQVTGGNRSTLAGYTEVAGQSARVIVANPHGITCQGCGFINTPRATLTTGKPIMDGQRLERFQVDGGDIVVEGAELNVGNLEQFDLITRSAKLNAKLYAKNLNIVTGRNDVQADSLQATPRAADGSEKPQLAIDSSALGGMYAGAIRLVGTEQGVGVKLAGDMAASGGDIRIDASGKLSLAQASSQGDLKIAAQAVELNGKTYAGGSAEIRSAEELVNRQS"}}, "experiment_in_all_cases": "glycan array binding signal (z-score within array); higher = stronger binding", "conditions_in_all_cases": "glycan notation: IUPAC condensed, linker removed", "key": {"[1]": {"target": "GalNAc3S(b1-4)GlcNAc3S", "in_short": "(§1)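 Arrays were curated from the Consortium for Functional Glycomics database, 3228 in total, and kept only where the protein sequence was available. Binding is expressed as a within-array Z-score. This score was averaged across arrays of the same protein sequence at different concentrations or buffers and across linkers, and negative values can be read as non-binding.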"}, "[2]": {"target": "GalNAc3S(b1-4)[Fuc(a1-3)]GlcNAc", "in_short": "as §1"}, "[3]": {"target": "GalNAc4S6S(b1-4)GlcNAc", "in_short": "as §1"}, "[4]": {"target": "GalNAc6S(b1-4)GlcNAc", "in_short": "as §1"}, "[5]": {"target": "Glc(a1-4)Glc", "in_short": "as §1"}, "[6]": {"target": "Glc(a1-4)Glc(a1-4)Glc(a1-4)Glc", "in_short": "as §1"}, "[7]": {"target": "Glc(a1-6)Glc(a1-6)Glc", "in_short": "as §1"}, "[8]": {"target": "Glc(a1-6)Glc(a1-6)Glc(a1-6)Glc", "in_short": "as §1"}, "[9]": {"target": "Glc(b1-4)Glc", "in_short": "as §1"}, "[10]": {"target": "Glc(b1-6)Glc", "in_short": "as §1"}, "[11]": {"target": "GlcA(b1-3)Gal", "in_short": "as §1"}, "[12]": {"target": "GlcA(b1-3)GlcNAc", "in_short": "as §1"}, "[13]": {"target": "GlcA(b1-6)Gal", "in_short": "as §1"}, "[14]": {"target": "GlcA3S(b1-3)Gal(b1-4)GlcNAc(b1-2)Man", "in_short": "as §1"}, "[15]": {"target": "GlcA3S(b1-3)Gal(b1-4)GlcNAc(b1-3)Gal(b1-4)Glc", "in_short": "as §1"}, "[16]": {"target": "GlcNAc(a1-3)Gal(b1-4)GlcNAc", "in_short": "as §1"}, "[17]": {"target": "GlcNAc(a1-4)Gal(b1-3)GlcNAc", "in_short": "as §1"}, "[18]": {"target": "GlcNAc(a1-4)Gal(b1-4)GalNAc", "in_short": "as §1"}, "[19]": {"target": "GlcNAc(a1-4)Gal(b1-4)GlcNAc", "in_short": "as §1"}, "[20]": {"target": "GlcNAc(a1-4)Gal(b1-4)GlcNAc(b1-3)Gal(b1-4)Glc", "in_short": "as §1"}, "[21]": {"target": "GlcNAc(a1-4)Gal(b1-4)GlcNAc(b1-3)Gal(b1-4)GlcNAc", "in_short": "as §1"}, "[22]": {"target": "GlcNAc(a1-4)Gal(b1-4)GlcNAc(b1-3)Gal(b1-4)GlcNAc(b1-3)Gal(b1-4)GlcNAc", "in_short": "as §1"}, "[23]": {"target": "GlcNAc(a1-4)Gal(b1-4)GlcNAc(b1-3)Gal(b1-4)[Fuc(a1-3)]GlcNAc(b1-3)Gal(b1-4)[Fuc(a1-3)]GlcNAc", "in_short": "as §1"}, "[24]": {"target": "GlcNAc(a1-6)Gal(b1-4)GlcNAc", "in_short": "as §1"}, "[25]": {"target": "GlcNAc(b1-2)Gal(b1-3)GalNAc", "in_short": "as §1"}, "[26]": {"target": "GlcNAc(b1-2)Man(a1-3)[GlcNAc(b1-2)Man(a1-6)]Man(b1-4)GlcNAc(b1-4)GlcNAc", "in_short": "as §1"}, "[27]": {"target": "GlcNAc(b1-2)Man(a1-3)[GlcNAc(b1-2)Man(a1-6)]Man(b1-4)GlcNAc(b1-4)[Fuc(a1-6)]GlcNAc", "in_short": "as §1"}, "[28]": {"target": "GlcNAc(b1-2)Man(a1-3)[GlcNAc(b1-4)][GlcNAc(b1-2)Man(a1-6)]Man(b1-4)GlcNAc(b1-4)GlcNAc", "in_short": "as §1"}, "[29]": {"target": "GlcNAc(b1-2)Man(a1-3)[GlcNAc(b1-4)][GlcNAc(b1-2)Man(a1-6)]Man(b1-4)GlcNAc(b1-4)[Fuc(a1-6)]GlcNAc", "in_short": "as §1"}, "[30]": {"target": "GlcNAc(b1-2)[GlcNAc(b1-4)]Man(a1-3)[GlcNAc(b1-2)Man(a1-6)]Man(b1-4)GlcNAc(b1-4)GlcNAc", "in_short": "as §1"}, "[31]": {"target": "GlcNAc(b1-2)[GlcNAc(b1-4)]Man(a1-3)[GlcNAc(b1-4)][GlcNAc(b1-2)Man(a1-6)]Man(b1-4)GlcNAc(b1-4)GlcNAc", "in_short": "as §1"}, "[32]": {"target": "GlcNAc(b1-2)[GlcNAc(b1-4)]Man(a1-3)[GlcNAc(b1-4)][GlcNAc(b1-2)[GlcNAc(b1-6)]Man(a1-6)]Man(b1-4)GlcNAc(b1-4)GlcNAc", "in_short": "as §1"}, "[33]": {"target": "GlcNAc(b1-2)[GlcNAc(b1-4)]Man(a1-3)[GlcNAc(b1-4)][GlcNAc(b1-2)[GlcNAc(b1-6)]Man(a1-6)]Man(b1-4)GlcNAc(b1-4)[Fuc(a1-6)]GlcNAc", "in_short": "as §1"}, "[34]": {"target": "GlcNAc(b1-2)[GlcNAc(b1-6)]Man(a1-6)[GlcNAc(b1-2)Man(a1-3)]Man(b1-4)GlcNAc(b1-4)GlcNAc", "in_short": "as §1"}, "[35]": {"target": "GlcNAc(b1-2)[GlcNAc(b1-6)]Man(a1-6)[GlcNAc(b1-2)Man(a1-3)]Man(b1-4)GlcNAc(b1-4)[Fuc(a1-6)]GlcNAc", "in_short": "as §1"}, "[36]": {"target": "GlcNAc(b1-2)[GlcNAc(b1-6)]Man(a1-6)[GlcNAc(b1-4)][GlcNAc(b1-2)Man(a1-3)]Man(b1-4)GlcNAc(b1-4)GlcNAc", "in_short": "as §1"}, "[37]": {"target": "GlcNAc(b1-3)Fuc", "in_short": "as §1"}, "[38]": {"target": "GlcNAc(b1-3)Gal", "in_short": "as §1"}}, "note": "This is one part of the list.", "data": [{"binder": "B1", "values": [{"measurement": "glycan array binding signal (z-score)", "setting": "[1]", "value": -0.246}, {"measurement": "glycan array binding signal (z-score)", "setting": "[2]", "value": -0.518}, {"measurement": "glycan array binding signal (z-score)", "setting": "[3]", "value": -0.251}, {"measurement": "glycan array binding signal (z-score)", "setting": "[4]", "value": -0.582}, {"measurement": "glycan array binding signal (z-score)", "setting": "[5]", "value": -0.563}, {"measurement": "glycan array binding signal (z-score)", "setting": "[6]", "value": 0.18}, {"measurement": "glycan array binding signal (z-score)", "setting": "[7]", "value": -0.404}, {"measurement": "glycan array binding signal (z-score)", "setting": "[8]", "value": 0.119}, {"measurement": "glycan array binding signal (z-score)", "setting": "[9]", "value": -0.009}, {"measurement": "glycan array binding signal (z-score)", "setting": "[10]", "value": -1.39}, {"measurement": "glycan array binding signal (z-score)", "setting": "[11]", "value": 0.104}, {"measurement": "glycan array binding signal (z-score)", "setting": "[12]", "value": 0.688}, {"measurement": "glycan array binding signal (z-score)", "setting": "[13]", "value": 0.203}, {"measurement": "glycan array binding signal (z-score)", "setting": "[14]", "value": 0.371}, {"measurement": "glycan array binding signal (z-score)", "setting": "[15]", "value": -0.72}, {"measurement": "glycan array binding signal (z-score)", "setting": "[16]", "value": -0.693}, {"measurement": "glycan array binding signal (z-score)", "setting": "[17]", "value": 0.762}, {"measurement": "glycan array binding signal (z-score)", "setting": "[18]", "value": -0.228}, {"measurement": "glycan array binding signal (z-score)", "setting": "[19]", "value": -0.006}, {"measurement": "glycan array binding signal (z-score)", "setting": "[20]", "value": -0.558}, {"measurement": "glycan array binding signal (z-score)", "setting": "[21]", "value": -0.003}, {"measurement": "glycan array binding signal (z-score)", "setting": "[22]", "value": 0.791}, {"measurement": "glycan array binding signal (z-score)", "setting": "[23]", "value": 0.682}, {"measurement": "glycan array binding signal (z-score)", "setting": "[24]", "value": -0.411}, {"measurement": "glycan array binding signal (z-score)", "setting": "[25]", "value": -0.049}, {"measurement": "glycan array binding signal (z-score)", "setting": "[26]", "value": -0.458}, {"measurement": "glycan array binding signal (z-score)", "setting": "[27]", "value": 0.819}, {"measurement": "glycan array binding signal (z-score)", "setting": "[28]", "value": 0.016}, {"measurement": "glycan array binding signal (z-score)", "setting": "[29]", "value": -0.954}, {"measurement": "glycan array binding signal (z-score)", "setting": "[30]", "value": 0.825}, {"measurement": "glycan array binding signal (z-score)", "setting": "[31]", "value": -0.97}, {"measurement": "glycan array binding signal (z-score)", "setting": "[32]", "value": -0.607}, {"measurement": "glycan array binding signal (z-score)", "setting": "[33]", "value": -0.463}, {"measurement": "glycan array binding signal (z-score)", "setting": "[34]", "value": -0.499}, {"measurement": "glycan array binding signal (z-score)", "setting": "[35]", "value": -0.51}, {"measurement": "glycan array binding signal (z-score)", "setting": "[36]", "value": -0.516}, {"measurement": "glycan array binding signal (z-score)", "setting": "[37]", "value": -1.14}, {"measurement": "glycan array binding signal (z-score)", "setting": "[38]", "value": -1.14}]}]}
